In assay [1] the target is CFDP1 (endogenous, mitotic HeLa cells) (human (endogenous in HeLa)) (UniProt Q9UEE9). The experiment in a line: co-IP; anti-CFDP1 antibody (mouse IgG as control), cytosolic and chromatin extracts of mitotic HeLa cells, overnight at 4°C, Dynabeads Protein G, wash with 250 mM NaCl, 0.1% NP40; immunoblot. For orientation: A western blot detects proteins with antibodies after separation by electrophoresis.

Chains of the proteins cited; added tags and fusions are not shown. Lines headed by an entry give the natural chain unless they say otherwise; changes in a name come on top.
UniProt P23258: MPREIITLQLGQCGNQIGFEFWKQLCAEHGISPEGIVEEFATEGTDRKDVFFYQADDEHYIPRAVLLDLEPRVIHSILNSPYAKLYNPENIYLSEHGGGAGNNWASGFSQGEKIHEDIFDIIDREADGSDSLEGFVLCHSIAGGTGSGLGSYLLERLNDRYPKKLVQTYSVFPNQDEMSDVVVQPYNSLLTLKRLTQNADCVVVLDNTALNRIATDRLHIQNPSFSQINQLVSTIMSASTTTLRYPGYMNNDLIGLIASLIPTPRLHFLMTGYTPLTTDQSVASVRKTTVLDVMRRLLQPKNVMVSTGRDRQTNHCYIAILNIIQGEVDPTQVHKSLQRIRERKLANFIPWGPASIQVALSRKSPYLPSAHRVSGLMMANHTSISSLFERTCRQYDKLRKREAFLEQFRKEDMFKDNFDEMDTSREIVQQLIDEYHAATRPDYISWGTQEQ

Assay [2] concerns the target Taxol stabilized microtubules (polymerized tubulin). The experiment in a line: co-sedimentation; test proteins (5 µM) with Taxol stabilized MTs in GTB, 30 min at room temperature, 100,000 g for 40 min at 25°C through a 60% glycerol cushion; supernatant and pellet by SDS-PAGE (Coomassie or western blot); CFDP1 and TPX2 also added together at varied concentrations; both ….

No constants are given. Whether binding was seen depends on the method and setting. Binding calls can cover weak binding; strength is not graded here. For some assays here: Tags and fused reporters may be left off the sequences shown. For some assays here: Binding seen in cells or lysates may run through a third protein.

With “γ-tubulin (endogenous, mitotic HeLa cells) (from UniProt P23258)”, the binding result in assay [1] is on record as “binds”.

B1: CFDP1 center fragment (aa 99-199), HIS tagged (domain or fragment, UniProt O88271 99-199)
chain: ENARKKKEDELWASFLNDVGPKSKAAPGSQTKVAEETEEISSNKPLVKADELDKPRESEKVKITKVFDFAGEEVRVTKEVDAASKEAKSFLKQTEREKPQA
B1: in assay [2], the binding result was “binds”.

For the origin of these results see doi:10.1101/2025.09.22.677689.
